Test results published in the supplement of paper PMC6078165.
± gives the standard deviation of the averaged measurements. Values are relative to the signal before dosing, not to a vehicle control; the signal also falls without drug.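 Labels refer to human fibroblasts, largely primary: uterine (C12385, HUF), lung (H6013), bone (Hs27A), adrenal (HADF), skin (WS1), plus mammary HMF and breast cancer-associated Hs343T. Cancer lines are basal-like or mesenchymal-like triple-negative breast cancer. The paper counts as hits responses shifting over 3x the replicate standard deviation. The tissue of the other fibroblasts is not given here.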 Numbered stars: 1 amine (or outer) side, 2 acyl side, 3 side chain; on linkers, the order of the positions; unused ones are H or OH. Bridge positions count the residues as written; N and C are the ends. Square brackets hold non-standard residues; d marks the D form. Peptide text beside a SMILES is read from it. I, II: the chains in the order shown. Actinocin(9to1) = Cc1c2oc3c(C)ccc(C(=O)[*:1])c3nc-2c(C(=O)[*:2])c(N)c1=O; NMeV = CN[C@H](C(=O)O)C(C)C; Sar = CNCC(=O)O

System: BT20
Experiment: relative JC-1 red fluorescence (viability) vs pre-drug, coculture with fibroblast (fraction); higher = more viable cancer cells
Procedure: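 JC-1 labelled TNBC cells cocultured 1:1 (1,500 cells each) with CellTrace Violet stained primary or stromal fibroblasts in 384-well plates in FluoroBrite medium, treated with one of 42 anticancer drugs at 0.1, 1, 10 or 100 uM. JC-1 red fluorescence (mitochondrial integrity in cancer cells only) was read by plate reader every 8 h for 72 h. Values are normalised to each well's pre-drug value. The stock of one drug was tenfold lower, so its dose labels may be too high.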

Cc1c2oc3c(C)ccc(C(=O)N[C@@H]4C(=O)N[C@H](C(C)C)C(=O)N5CCC[C@H]5C(=O)N(C)CC(=O)N(C)[C@@H](C(C)C)C(=O)O[C@@H]4C)c3nc-2c(C(=O)N[C@@H]2C(=O)N[C@H](C(C)C)C(=O)N3CCC[C@H]3C(=O)N(C)CC(=O)N(C)[C@@H](C(C)C)C(=O)O[C@@H]2C)c(N)c1=O [Dactinomycin] (I: T[dV]P[Sar][NMeV] / II: T[dV]P[Sar][NMeV]; ester I:1-I:C, II:1-II:C; linker I:N-II:N via Actinocin(9to1))
relative JC-1 red fluorescence
Conditions | 8 h | 16 h | 24 h | 32 h | 40 h | 48 h | 56 h | 64 h | 72 h
0.1 µM, coculture fibroblast: C12385 | 0.884 ± 0.013 | 0.855 ± 0.027 | 0.85 ± 0.049 | 0.797 ± 0.044 | 0.741 ± 0.063 | 0.734 ± 0.07 | 0.724 ± 0.079 | 0.721 ± 0.091 | 0.717 ± 0.11
0.1 µM, coculture fibroblast: H6013 | 0.922 ± 0.017 | 0.907 ± 0.043 | 0.924 ± 0.09 | 0.882 ± 0.093 | 0.868 ± 0.11 | 0.875 ± 0.14 | 0.772 ± 0.076 | 0.778 ± 0.079 | 0.855 ± 0.018
0.1 µM, coculture fibroblast: H6019 | 0.8748 ± 0.0056 | 0.814 ± 0.029 | 0.814 ± 0.058 | 0.775 ± 0.051 | 0.746 ± 0.077 | 0.74 ± 0.094 | 0.722 ± 0.1 | 0.715 ± 0.097 | 0.708 ± 0.073
0.1 µM, coculture fibroblast: H6076 | 0.847 ± 0.055 | 0.9335 ± 0.0051 | 0.8283 ± 0.0066 | 0.77681 ± 0.00064 | 0.7392 ± 0.0039 | 0.716 ± 0.017 | 0.728 ± 0.028 | 0.724 ± 0.039 | 0.711 ± 0.064
0.1 µM, coculture fibroblast: H6231 | 0.83 ± 0.078 | 0.9265 ± 0.002 | 0.855 ± 0.024 | 0.807 ± 0.017 | 0.771 ± 0.016 | 0.724 ± 0.024 | 0.696 ± 0.031 | 0.685 ± 0.03 | 0.674 ± 0.029
0.1 µM, coculture fibroblast: HADF | 0.9684 ± 0.0053 | 0.932 ± 0.016 | 0.911 ± 0.02 | 0.85 ± 0.015 | 0.836 ± 0.01 | 0.802 ± 0.019 | 0.821 ± 0.027 | 0.832 ± 0.031 | 0.833 ± 0.043
0.1 µM, coculture fibroblast: HCFa | 0.906 ± 0.026 | 0.87 ± 0.01 | 0.862 ± 0.03 | 0.82 ± 0.032 | 0.804 ± 0.044 | 0.808 ± 0.052 | 0.836 ± 0.057 | 0.864 ± 0.062 | 0.844 ± 0.065
0.1 µM, coculture fibroblast: HCPF | 0.841 ± 0.092 | 0.951 ± 0.03 | 0.875 ± 0.028 | 0.823 ± 0.015 | 0.7868 ± 0.0041 | 0.7484 ± 0.0067 | 0.7188 ± 0.007 | 0.734 ± 0.025 | 0.714 ± 0.03
0.1 µM, coculture fibroblast: HHSteC | 0.9047 ± 0.0024 | 0.886 ± 0.012 | 0.886 ± 0.035 | 0.829 ± 0.029 | 0.811 ± 0.041 | 0.798 ± 0.041 | 0.815 ± 0.044 | 0.819 ± 0.056 | 0.803 ± 0.058
0.1 µM, coculture fibroblast: HMF | 0.852 ± 0.17 | 0.887 ± 0.027 | 0.7639 ± 0.0072 | 0.719 ± 0.02 | 0.666 ± 0.033 | 0.607 ± 0.041 | 0.55 ± 0.048 | 0.513 ± 0.046 | 0.483 ± 0.049
0.1 µM, coculture fibroblast: HPFa | 0.917 ± 0.029 | 0.904 ± 0.026 | 0.904 ± 0.024 | 0.824 ± 0.021 | 0.8195 ± 0.0079 | 0.809 ± 0.019 | 0.809 ± 0.042 | 0.823 ± 0.061 | 0.82 ± 0.073
0.1 µM, coculture fibroblast: HUF | 0.894 ± 0.027 | 0.863 ± 0.07 | 0.859 ± 0.097 | 0.809 ± 0.12 | 0.783 ± 0.14 | 0.774 ± 0.15 | 0.773 ± 0.16 | 0.78 ± 0.15 | 0.776 ± 0.15
0.1 µM, coculture fibroblast: Hs5 | 0.886 ± 0.15 | 0.91827 ± 0.00081 | 0.877 ± 0.015 | 0.846 ± 0.013 | 0.812 ± 0.025 | 0.789 ± 0.025 | 0.777 ± 0.022 | 0.757 ± 0.026 | 0.759 ± 0.038
0.1 µM, coculture fibroblast: Hs27A | 0.913 ± 0.12 | 0.899 ± 0.021 | 0.84 ± 0.12 | 0.853 ± 0.13 | 0.834 ± 0.14 | 0.879 ± 0.13 | 0.819 ± 0.02 | 0.829 ± 0.12 | 0.903 ± 0.031
0.1 µM, coculture fibroblast: Hs343T | 0.738 ± 0.031 | 0.903 ± 0.02 | 0.7737 ± 0.0064 | 0.701 ± 0.0095 | 0.6456 ± 0.0064 | 0.588 ± 0.024 | 0.529 ± 0.045 | 0.513 ± 0.038 | 0.477 ± 0.045
0.1 µM, coculture fibroblast: WS1 | 0.864 ± 0.013 | 0.82145 ± 0.00017 | 0.803 ± 0.0087 | 0.751 ± 0.014 | 0.702 ± 0.012 | 0.684 ± 0.021 | 0.673 ± 0.051 | 0.652 ± 0.066 | 0.65 ± 0.074
1 µM, coculture fibroblast: C12385 | 0.843 ± 0.03 | 0.806 ± 0.022 | 0.806 ± 0.1 | 0.741 ± 0.13 | 0.673 ± 0.14 | 0.66 ± 0.17 | 0.641 ± 0.17 | 0.644 ± 0.17 | 0.648 ± 0.17
1 µM, coculture fibroblast: H6013 | 0.927 ± 0.013 | 0.892 ± 0.056 | 0.889 ± 0.15 | 0.8 ± 0.18 | 0.76 ± 0.21 | 0.722 ± 0.23 | 0.731 ± 0.26 | 0.716 ± 0.26 | 0.706 ± 0.27
1 µM, coculture fibroblast: H6019 | 0.834 ± 0.044 | 0.75 ± 0.093 | 0.71 ± 0.17 | 0.646 ± 0.19 | 0.6 ± 0.22 | 0.604 ± 0.23 | 0.588 ± 0.24 | 0.584 ± 0.24 | 0.586 ± 0.26
1 µM, coculture fibroblast: H6076 | 0.881 ± 0.05 | 0.892 ± 0.024 | 0.774 ± 0.09 | 0.728 ± 0.14 | 0.707 ± 0.15 | 0.687 ± 0.18 | 0.68 ± 0.21 | 0.686 ± 0.22 | 0.672 ± 0.23
1 µM, coculture fibroblast: H6231 | 0.781 ± 0.06 | 0.8717 ± 0.0034 | 0.764 ± 0.021 | 0.69 ± 0.022 | 0.609 ± 0.019 | 0.549 ± 0.0095 | 0.5225 ± 0.0037 | 0.483 ± 0.016 | 0.474 ± 0.024
1 µM, coculture fibroblast: HADF | 0.9561 ± 0.0074 | 0.896 ± 0.052 | 0.863 ± 0.085 | 0.767 ± 0.067 | 0.735 ± 0.057 | 0.706 ± 0.06 | 0.713 ± 0.052 | 0.708 ± 0.05 | 0.698 ± 0.038
1 µM, coculture fibroblast: HCFa | 0.919 ± 0.019 | 0.838 ± 0.013 | 0.763 ± 0.064 | 0.685 ± 0.11 | 0.651 ± 0.14 | 0.625 ± 0.13 | 0.625 ± 0.15 | 0.624 ± 0.17 | 0.606 ± 0.17
1 µM, coculture fibroblast: HCPF | 0.789 ± 0.073 | 0.933 ± 0.02 | 0.846 ± 0.016 | 0.783 ± 0.041 | 0.743 ± 0.053 | 0.693 ± 0.042 | 0.63 ± 0.067 | 0.607 ± 0.061 | 0.553 ± 0.051
1 µM, coculture fibroblast: HHSteC | 0.9264 ± 0.0013 | 0.9 ± 0.0094 | 0.8867 ± 0.0026 | 0.759 ± 0.029 | 0.719 ± 0.054 | 0.674 ± 0.072 | 0.673 ± 0.08 | 0.653 ± 0.089 | 0.629 ± 0.1
1 µM, coculture fibroblast: HMF | 0.899 ± 0.055 | 0.8686 ± 0.0054 | 0.734 ± 0.075 | 0.656 ± 0.069 | 0.608 ± 0.076 | 0.559 ± 0.077 | 0.531 ± 0.081 | 0.502 ± 0.074 | 0.477 ± 0.065
1 µM, coculture fibroblast: HPFa | 0.901 ± 0.022 | 0.843 ± 0.13 | 0.833 ± 0.22 | 0.738 ± 0.23 | 0.727 ± 0.28 | 0.701 ± 0.29 | 0.716 ± 0.32 | 0.713 ± 0.33 | 0.699 ± 0.33
1 µM, coculture fibroblast: HUF | 0.881 ± 0.0099 | 0.781 ± 0.042 | 0.729 ± 0.069 | 0.631 ± 0.08 | 0.574 ± 0.11 | 0.536 ± 0.12 | 0.531 ± 0.12 | 0.515 ± 0.12 | 0.501 ± 0.12
1 µM, coculture fibroblast: Hs5 | 0.868 ± 0.15 | 0.875 ± 0.033 | 0.764 ± 0.071 | 0.708 ± 0.082 | 0.679 ± 0.068 | 0.65 ± 0.075 | 0.638 ± 0.063 | 0.621 ± 0.061 | 0.609 ± 0.059
1 µM, coculture fibroblast: Hs27A | 0.874 ± 0.019 | 0.828 ± 0.071 | 0.773 ± 0.044 | 0.789 ± 0.1 | 0.829 ± 0.24 | 0.822 ± 0.25 | 0.734 ± 0.13 | 0.68 ± 0.053 | 0.795 ± 0.25
1 µM, coculture fibroblast: Hs343T | 0.902 ± 0.085 | 0.878 ± 0.062 | 0.773 ± 0.1 | 0.707 ± 0.12 | 0.666 ± 0.11 | 0.615 ± 0.086 | 0.571 ± 0.081 | 0.555 ± 0.067 | 0.533 ± 0.062
1 µM, coculture fibroblast: WS1 | 0.838 ± 0.021 | 0.788 ± 0.0096 | 0.739 ± 0.037 | 0.661 ± 0.026 | 0.6182 ± 0.0052 | 0.603 ± 0.01 | 0.6016 ± 0.0028 | 0.5984 ± 0.0032 | 0.595 ± 0.0098
